## Library screening results

Measurements from “University of Dundee, Small-Polar-MMV Screening Library” (2021), ChEMBL document CHEMBL3988442.

Each number is a percent effect as filed.
The record does not define 0% and 100%; most values in the screen are far below 50% and negative numbers occur (in some assays of this library far below -100).
The compounds are a random part of those screened.
A dash means the value is not listed here; it may have been measured.

A: 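Whole-cell assay for inhibitors of Mycobacterium tuberculosis growth, labelled Cornell in the record; the read-out is not stated. The concentration is filed as 10 mM, unlikely as a test dose, so the dose is not known. Higher means stronger inhibition (inferred from two other growth screens of the library). Of about 53,000 compounds tested this way, about 900 (1.7%) reached 50% or more in at least one test.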
B: 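Assay on Mycobacterium tuberculosis, filed only as a heat shock assay from Cornell; the read-out is not stated. The concentration is filed as 10 mM, unlikely as a test dose, so the dose is not known. The record gives no direction; compounds that gave an IC50 in retests scored well above the rest, so higher reads as stronger inhibition. Size under these conditions: about 69,000 compounds, about 930 of them at 50% or above in at least one test.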

| Compound | A | B |
|---|---|---|
| `N#CCCN(c1ccc(F)cc1)S(=O)(=O)CC1CCCCO1` (stereo not drawn) | -2.081% | -11.02% |
| `CC(C)[C@H](NC(=O)NC1CCS(=O)(=O)C1)C(=O)NCc1ccccc1Cl` (stereo partly drawn) | - | 4.625% |
| `O=C(O)C(F)(F)F.[H][C@]12CCC[C@@]1(COc1ccccn1)CN(C(=O)c1cocn1)C2` | 78.33% | 21.2% |
| `CCC[C@@H]1CN(C(=O)c2cc3ccccc3s2)C[C@H]1NS(C)(=O)=O` | -75.65% | 11.11% |
| `NC(=O)c1cccc(CC2CCN(C(=O)CCc3cccc(F)c3)C2)c1` (stereo not drawn) | 16.94% | 2.144% |
| `CCn1c(-c2ccccc2)nn(CC(=O)NCCc2ccc(C)s2)c1=O` | -0.5538% | -33.52% |
| `COCc1noc(Cn2ccc3ncccc3c2=O)n1` | 7.313% | -4.253% |
| `CN1CCN(c2nc(O)c3c(-c4ccccn4)ccnc3n2)CC1` | -39.33% | -29.24% |
| `CCOCCC(=O)NCC(C)c1ccsc1` (stereo not drawn) | - | 3.966% |
| `CC(C(=O)NCc1ccnc(Oc2ccc(F)cc2)c1)n1cncn1` (stereo not drawn) | - | 1.698% |
| `CCc1cnc2c(c1Nc1ccc(C)c(F)c1)c(=O)n(C)c(=O)n2C` | 22.1% | 22.25% |
| `O=C(O)C(F)(F)F.[H][C@@]12COC[C@]1(CNC(=O)c1ccsc1)CN(Cc1cccs1)C2` | 12.64% | -31.55% |
| `CC(C)(O)CN1CCN(C(=O)COC2CCCCC2)CC1` | 31.01% | -11.91% |
| `Cc1nn(C)c(C)c1CC(C)NC(=O)NCc1ccoc1C` (stereo not drawn) | -1.286% | -31.46% |
| `O=C(O)C(F)(F)F.O=C(O)C(F)(F)F.[H][C@@]12CCCO[C@]1([H])[C@@H](OCc1ccncc1)CN2c1nnc(C)s1` | -0.4738% | -37.85% |
| `[H][C@@]12CCN(C(=O)c3ccc[nH]3)[C@@]1([H])CC(=O)N2CCOC` | -2.55% | -25.19% |
| `COCCC(=O)N1CCCC(c2nc(O)cc(-c3ccncc3)n2)C1` (stereo not drawn) | -26.08% | -30.55% |
| `COCC1CCN(C(=O)c2cccc(S(=O)(=O)NC3CCCC3)c2)C1` (stereo not drawn) | -22.27% | 1.082% |
| `CCOC(=O)CCNC(=O)c1nc(OCC)ccc1Cl` | - | -5.63% |
| `CCC(C)NS(=O)(=O)c1ccc(C(=O)N(C)C2(C#N)CCC2)cc1` (stereo not drawn) | -11.7% | -11.74% |
| `CC(C)(C)NC(=O)CNc1ncc(Br)cn1` | - | -3.423% |
| `Cc1ncccc1OC1(C(=O)NCCc2ccccn2)CCNCC1` | - | -12.66% |
| `CC(C)(CNC(=O)c1ccco1)NC(=O)OC(C)(C)C` | - | -161.4% |
| `Cc1cc(C(=O)N2CC[C@]3(C[C@@H](OCc4ccccn4)CO3)C2)c(C)o1.O=C(O)C(F)(F)F` | -7.234% | 38.17% |
| `CC1=Nc2c(c(=O)[nH]n2C2CCOCC2)C(c2cccc(Br)c2)S1` (stereo not drawn) | - | 17.05% |
| `CCc1nccn1C1CCCN(C(=O)c2ccc3[nH]c(=O)[nH]c3c2)C1` (stereo not drawn) | -6.045% | -9.955% |
| `Cc1ccc(S(=O)(=O)NC(=O)COc2ccc(CC#N)cc2)s1` | -54.9% | -27.41% |
| `Cc1nn(C)c(Cl)c1C1CCCN1C(=O)c1cc[nH]n1` (stereo not drawn) | 0.9808% | 1.884% |
| `CC(C)(C)S(=O)(=O)CCNC(=O)c1ccc2cc[nH]c2c1` | 25.86% | -8.807% |
| `Cc1cccc(-c2nc(C)nn2CN2CCN(S(C)(=O)=O)CC2)c1` | - | 29.58% |
| `COCCN1CCC(CNC(=O)C2(c3cccc(C)c3)CC2)C1` (stereo not drawn) | -3.587% | -11.71% |
| `CNC(=O)C1(c2cnccn2)CCCN1C(=O)c1ccccc1OC` (stereo not drawn) | - | -19.41% |
| `Cc1ccc(CN(CCCn2ccnc2)Cc2c[nH]cn2)s1.O=C(O)CC(O)(CC(=O)O)C(=O)O` | 12.33% | -3.628% |
| `CCCn1cc(NC(=O)c2cccc(CN3CC[C@H](O)C3)c2)nn1` | 21.88% | 18.76% |
| `CN(C)c1ncccc1CNC(=O)NCc1ccc(Cl)s1` | - | 6.361% |
| `O=C1COc2ccc(Br)cc2CN1CC1CC1` | 33.26% | 7.217% |
| `CCCn1cnnc1CN(C)C(=O)C1CCC(=O)N(C2CCCC2)C1` (stereo not drawn) | -12.71% | -50.75% |
| `Cc1ccc(-c2nc(CN3CCn4c(nnc4C4CC4)C3)no2)cc1` | 26.38% | 2.862% |
| `CCC(=O)N1CCCC(c2ncc3c(n2)CCN(C)C3)C1` (stereo not drawn) | - | -10.9% |
| `Cc1cc(N(Cc2cccnc2)C2CC2)n2nc(C(F)(F)F)nc2n1` | -20.7% | -29.28% |
| `NC(=O)c1ccc(S(=O)(=O)NC2CCN(Cc3ccccc3)C2=O)cc1` (stereo not drawn) | -24.59% | 15.57% |
| `Cc1noc(C)c1-c1nc(NCCN(C)C)ncc1-c1cnccn1` | -5.753% | -18.03% |
| `CN1CCCC1c1cccc(Cc2ccc(F)cc2)n1` (stereo not drawn) | -15.78% | 24.93% |
| `CC(Cc1ccco1)NS(=O)(=O)N1CCCCCC1` (stereo not drawn) | 68.78% | 29.73% |
| `O=C(O)c1nnn(-c2cc(F)cc(F)c2)c1-c1ccncc1` | -3.318% | -0.9475% |
| `COCC1CC2(CCN(Cc3cccc(C#N)c3)CC2)CN1C(C)C.O=C(O)C(F)(F)F.O=C(O)C(F)(F)F` (stereo not drawn) | -30.28% | 1.417% |
| `COc1ccc(-c2cn(CCn3c(C)cc(C)nc3=O)nn2)cn1` | -73.65% | 31.18% |
| `c1ccc(Cc2nc(CNC3CCOC4(CCOCC4)C3)no2)cc1` (stereo not drawn) | 8.637% | -33.94% |
| `CC(C)(C)OC(=O)N1CSC[C@@H]1C(=O)NCc1ccsc1` | -30.07% | 14.96% |
| `Cc1cnc(N2Cc3cnn(Cc4ccc(F)cc4)c3C2)nc1N(C)C` | -21.65% | -15.03% |
| `O=C(O)C(F)(F)F.O=C(O)C(F)(F)F.[H][C@@]12C[C@@H](C(=O)NC(C)C)C[C@@]1([H])N(Cc1cccnc1)CCO2` | 25.91% | -1.827% |
| `CCN(Cc1ccccc1)C(=O)CN1CCOC(Cn2cncn2)C1` (stereo not drawn) | - | -27.4% |
| `COc1cc2c(cc1CN1CCC3(CCCN(C)C3=O)C1)OCCO2` (stereo not drawn) | 14.22% | -0.6072% |
| `Cc1cc(C)n(CC(=O)N2CCC(Nc3cccnn3)CC2)n1` | - | 6.825% |
| `C=C(C)COc1ccccc1C(=O)N(C)C(C)c1c(C)n[nH]c1C` (stereo not drawn) | 9.069% | 12.09% |
| `CC(=O)Nc1ccc2nc(CN(C)Cc3noc(C)n3)ccc2c1` | 27.13% | 14.06% |
| `Cc1cnccc1-c1cc(NCCO)nc2[nH]ccc12` | -27.02% | 0.6065% |
| `Cc1cc(NC(=O)NC(C)(C)c2nc(C)c(C)s2)no1` | 12.76% | -18.71% |
| `CNc1cccc(C2CCCN(C(=O)c3coc(C)n3)C2)n1` (stereo not drawn) | 1.103% | -8.225% |
| `CC(C)N1CCC(NC(=O)NC2CCOc3ccc(Br)cc32)CC1` (stereo not drawn) | - | -8.361% |
| `CCCN1CCN(S(=O)(=O)c2ncn(C)c2Cl)CC1` | 19.68% | -13.91% |
| `Cc1ncc(CNC(C)(C)CO)c2cc(C(=O)c3ccc(Br)cc3)oc12` | 3.063% | 39.89% |
| `O=C(O)C(F)(F)F.[H][C@]12CCC[C@@]1(COCc1ccncc1)CN(C(=O)c1ncccn1)C2` | -6.71% | 1.687% |
| `Cc1c(-c2nc(-c3cccc(CN4CCOCC4)c3)no2)cnn1C` | 6.054% | -13.86% |
| `Cc1nnc2n1CCN(Cc1csc(-c3ncccn3)n1)C2` | -79.55% | -28.47% |
| `CC(C)CC(C(=O)N1CCCSCC1)N1CCCCC1=O` (stereo not drawn) | -2.673% | -17.91% |
| `CC(c1cc(F)ccc1F)N1CCN(C(=O)c2ccc(=O)[nH]c2)CC1` (stereo not drawn) | -7.98% | -0.05856% |
| `CN(Cc1ccccc1)CC1CC2(CO1)CN(Cc1cnn(C)c1)C2` (stereo not drawn) | 23.16% | -1.881% |
| `COc1ccc(C2CCCN2S(=O)(=O)c2cc(F)ccc2F)cc1` (stereo not drawn) | 48.53% | 3.034% |
| `CCS(=O)(=O)NCCNCc1cc(F)ccc1Br` | -34.09% | -17.28% |
| `CCn1nc(C)c2nc(C(C)C)nc(NCCCO)c21` | - | -3.536% |
| `CCCNC(=O)COc1cccc(-c2nc(C(C)C)no2)c1` | - | -18.94% |
| `N#CCCN(CC(F)(F)F)C(=O)c1cc(-n2cccn2)ccn1` | -4.391% | -36.75% |
| `Cc1n[nH]c(C)c1CCc1nc(C2CC2)n[nH]1` | 33.42% | -23.02% |
| `Cc1ncsc1CCC(=O)NCc1cc2n(n1)CCNC2` | 25.28% | -50.55% |
| `Cc1ccsc1C(CNC(=O)c1cc(=O)[nH]c(=O)[nH]1)N(C)C` (stereo not drawn) | -26.09% | -7.304% |
| `CCN(C)c1ccc(C(=O)NCCCc2ccccn2)cn1` | 22.81% | -19.3% |
| `CC(C)(CNC(=O)NCCOc1cccc(F)c1)C(N)=O` | - | -7.633% |
| `CC(C)CCNC(=O)C(c1cccc(F)c1)N(C)C` (stereo not drawn) | 20.91% | -10.89% |
| `COCCOc1ccc(NC(=O)N(CC2CCOC2)C2CC2)cn1` (stereo not drawn) | 16.03% | 21.59% |
| `O=C(c1csc2nc(-c3ccc(Cl)cc3)cn12)N1CCCC(CO)C1` (stereo not drawn) | 7.573% | 17.74% |
| `CCn1cc(NC(=O)NCC(O)COc2ccccc2)cn1` (stereo not drawn) | - | 2.577% |
| `CCn1cnnc1C1CCN(C(=O)COCCc2ccccc2)CC1` | - | -8.127% |

Some entries from above, unchanged:

Compound	A	B
Cc1cnccc1-c1cc(NCCO)nc2[nH]ccc12	-27.02%	0.6065%
CCc1cnc2c(c1Nc1ccc(C)c(F)c1)c(=O)n(C)c(=O)n2C	22.1%	22.25%
Cc1noc(C)c1-c1nc(NCCN(C)C)ncc1-c1cnccn1	-5.753%	-18.03%
CNc1cccc(C2CCCN(C(=O)c3coc(C)n3)C2)n1 (stereo not drawn)	1.103%	-8.225%
CCS(=O)(=O)NCCNCc1cc(F)ccc1Br	-34.09%	-17.28%
CC(C)(O)CN1CCN(C(=O)COC2CCCCC2)CC1	31.01%	-11.91%
O=C1COc2ccc(Br)cc2CN1CC1CC1	33.26%	7.217%
COCC1CCN(C(=O)c2cccc(S(=O)(=O)NC3CCCC3)c2)C1 (stereo not drawn)	-22.27%	1.082%
N#CCCN(CC(F)(F)F)C(=O)c1cc(-n2cccn2)ccn1	-4.391%	-36.75%
Cc1nn(C)c(Cl)c1C1CCCN1C(=O)c1cc[nH]n1 (stereo not drawn)	0.9808%	1.884%